Experimental data: publication PMC3251568
These are yes or no findings as the source states them, for the method shown. In cells and extracts the contact can be indirect. Some entries that bind do so weakly or less than the wild type.

Protein sequences, listed by entry. Tags and fused reporters are not part of them. Lines headed by an entry give the natural chain unless they say otherwise; changes in a name come on top. Chains listed by the source or under a name are the forms on record and can include a tag or linker.
UniProt P00519: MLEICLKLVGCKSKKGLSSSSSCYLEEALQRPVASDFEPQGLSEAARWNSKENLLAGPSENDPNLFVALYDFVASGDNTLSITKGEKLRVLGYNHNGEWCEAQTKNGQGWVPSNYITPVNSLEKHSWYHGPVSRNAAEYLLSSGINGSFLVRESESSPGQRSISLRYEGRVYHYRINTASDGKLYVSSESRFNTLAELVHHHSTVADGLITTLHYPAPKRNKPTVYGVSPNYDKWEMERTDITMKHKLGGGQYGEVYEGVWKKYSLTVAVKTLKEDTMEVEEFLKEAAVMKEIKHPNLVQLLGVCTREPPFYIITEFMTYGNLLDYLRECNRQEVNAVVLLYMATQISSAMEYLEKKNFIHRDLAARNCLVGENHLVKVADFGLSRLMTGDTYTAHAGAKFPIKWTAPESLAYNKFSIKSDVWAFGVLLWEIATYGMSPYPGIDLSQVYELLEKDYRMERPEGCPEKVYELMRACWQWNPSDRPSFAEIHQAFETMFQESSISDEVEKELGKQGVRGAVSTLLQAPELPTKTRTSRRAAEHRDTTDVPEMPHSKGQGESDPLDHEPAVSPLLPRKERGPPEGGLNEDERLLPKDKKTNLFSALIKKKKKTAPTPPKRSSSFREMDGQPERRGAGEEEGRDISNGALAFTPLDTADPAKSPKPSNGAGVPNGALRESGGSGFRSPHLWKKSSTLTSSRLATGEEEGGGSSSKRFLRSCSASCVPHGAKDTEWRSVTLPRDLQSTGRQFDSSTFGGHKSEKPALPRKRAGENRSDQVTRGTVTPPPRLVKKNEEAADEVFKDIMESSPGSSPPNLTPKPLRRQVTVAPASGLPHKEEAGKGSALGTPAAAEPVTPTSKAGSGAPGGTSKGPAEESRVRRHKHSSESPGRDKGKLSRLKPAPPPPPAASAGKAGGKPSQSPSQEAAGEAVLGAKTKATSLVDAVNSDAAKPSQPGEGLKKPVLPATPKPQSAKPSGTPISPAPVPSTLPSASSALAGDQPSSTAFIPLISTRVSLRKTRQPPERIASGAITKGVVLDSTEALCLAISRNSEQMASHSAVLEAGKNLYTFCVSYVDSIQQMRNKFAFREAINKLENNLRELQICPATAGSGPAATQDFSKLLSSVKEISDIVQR
Myc-tagged QI-AA mutant of c-Abl (P00519, form named): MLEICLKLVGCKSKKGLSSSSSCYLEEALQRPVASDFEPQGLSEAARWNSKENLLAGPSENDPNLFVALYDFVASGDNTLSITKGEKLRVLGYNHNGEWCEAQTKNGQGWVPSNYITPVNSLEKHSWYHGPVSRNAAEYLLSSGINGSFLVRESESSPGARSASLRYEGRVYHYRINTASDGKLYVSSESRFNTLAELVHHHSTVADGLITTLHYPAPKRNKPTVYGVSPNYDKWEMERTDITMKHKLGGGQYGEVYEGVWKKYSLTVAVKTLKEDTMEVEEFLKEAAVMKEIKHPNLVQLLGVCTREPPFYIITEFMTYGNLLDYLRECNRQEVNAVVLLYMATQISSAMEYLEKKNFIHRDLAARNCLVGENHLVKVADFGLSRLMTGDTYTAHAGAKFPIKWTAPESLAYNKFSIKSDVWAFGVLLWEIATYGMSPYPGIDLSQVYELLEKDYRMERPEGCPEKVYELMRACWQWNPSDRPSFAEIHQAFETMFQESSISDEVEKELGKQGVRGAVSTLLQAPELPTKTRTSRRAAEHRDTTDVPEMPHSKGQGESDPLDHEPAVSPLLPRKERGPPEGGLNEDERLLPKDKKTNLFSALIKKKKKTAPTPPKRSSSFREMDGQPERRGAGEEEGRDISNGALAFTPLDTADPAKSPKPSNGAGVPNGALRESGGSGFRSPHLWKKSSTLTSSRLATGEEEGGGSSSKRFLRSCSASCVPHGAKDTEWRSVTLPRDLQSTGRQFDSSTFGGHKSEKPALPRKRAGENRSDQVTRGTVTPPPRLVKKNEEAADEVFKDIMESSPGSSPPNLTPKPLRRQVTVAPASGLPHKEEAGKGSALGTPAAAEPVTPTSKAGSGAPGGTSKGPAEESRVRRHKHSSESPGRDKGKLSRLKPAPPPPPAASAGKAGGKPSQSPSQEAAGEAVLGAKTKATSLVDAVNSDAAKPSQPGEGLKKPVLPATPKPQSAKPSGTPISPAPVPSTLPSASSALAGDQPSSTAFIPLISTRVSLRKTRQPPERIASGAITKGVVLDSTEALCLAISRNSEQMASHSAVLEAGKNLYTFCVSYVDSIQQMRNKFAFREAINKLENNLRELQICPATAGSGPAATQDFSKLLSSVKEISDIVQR
UniProt P12004: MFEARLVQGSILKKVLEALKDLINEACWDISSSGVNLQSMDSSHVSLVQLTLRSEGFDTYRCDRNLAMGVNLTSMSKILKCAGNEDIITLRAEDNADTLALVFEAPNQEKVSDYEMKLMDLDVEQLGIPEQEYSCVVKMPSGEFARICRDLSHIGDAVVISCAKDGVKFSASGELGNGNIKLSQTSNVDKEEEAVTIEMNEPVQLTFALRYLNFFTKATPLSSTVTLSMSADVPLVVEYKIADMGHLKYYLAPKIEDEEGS

Assays:
[1] = target: non-receptor tyrosine kinase c-Abl, endogenous (human (endogenous in BT474, MDA-MB-231, HEK293T)) (UniProt P00519); assay: co-IP; HEK293T cells transfected with FLAG-tagged wild-type or Y211F PCNA; endogenous c-Abl precipitated with anti-c-Abl antibody; co-precipitated FLAG-PCNA by western analysis
[2] = target: non-receptor tyrosine kinase c-Abl, endogenous (human (endogenous in BT474, MDA-MB-231, HEK293T)) (UniProt P00519); assay: co-IP; endogenous proteins in lysates of BT474 and MDA-MB-231 cells (NETN buffer: 150 mM NaCl, 20 mM Tris pH 8.0, 0.5% NP-40); IP with anti-c-Abl antibody at 4°C overnight, protein G agarose, blot for PCNA; also cells with or without ionizing irradiation (10 Gy, 2 h), which enhanced the interaction
[3] = target: Myc-tagged QI-AA mutant of c-Abl (UniProt P00519); assay: co-IP; HEK293T cells transfected with Myc-tagged wild-type or QI-AA mutant c-Abl or control vector; IP with anti-Myc antibody; co-precipitated endogenous PCNA by western analysis with anti-PCNA antibody
[4] = target: Myc-tagged wild-type c-Abl (UniProt P00519); assay: as above

| binding [1] | binding [2] | binding [3] | binding [4] | Substance |
| --- | --- | --- | --- | --- |
| binds |  |  |  | FLAG-tagged wild-type PCNA (from UniProt P12004 1-261) |
|  | binds | binds | binds | proliferating cell nuclear antigen (PCNA), endogenous (from UniProt P12004 1-261) |
